According to US20040219555:
Where cells or extracts were used, other partners may take part. For some assays here: No signal at the amounts used counts as a negative. For some assays here: Where a protein sequence is shown, tags need not be part of it.

Chains of the proteins cited; added tags and fusions are not shown. A line that says so, or that is headed by a name, gives the form on record, which may keep a tag or linker.
NF-kB p50-p65 heterodimer (Homo sapiens), one chain, as listed by the source: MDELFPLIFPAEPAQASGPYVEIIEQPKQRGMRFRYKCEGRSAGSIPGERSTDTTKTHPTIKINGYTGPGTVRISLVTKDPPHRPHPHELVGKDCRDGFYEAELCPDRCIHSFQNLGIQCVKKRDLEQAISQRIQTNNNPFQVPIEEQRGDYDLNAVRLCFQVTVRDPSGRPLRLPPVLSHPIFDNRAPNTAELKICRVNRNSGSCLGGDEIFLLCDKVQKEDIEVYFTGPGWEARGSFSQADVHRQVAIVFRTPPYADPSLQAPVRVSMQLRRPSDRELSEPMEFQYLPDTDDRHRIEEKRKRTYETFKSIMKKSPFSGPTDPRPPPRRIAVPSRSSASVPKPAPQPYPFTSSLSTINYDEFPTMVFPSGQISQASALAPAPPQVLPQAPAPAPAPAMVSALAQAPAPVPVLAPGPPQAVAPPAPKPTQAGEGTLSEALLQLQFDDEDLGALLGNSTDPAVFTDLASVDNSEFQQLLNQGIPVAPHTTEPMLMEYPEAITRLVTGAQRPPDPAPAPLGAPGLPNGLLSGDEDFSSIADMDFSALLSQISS

Tests used:
[1] = molecular target: T1, OCT1 (POU2F1) (Homo sapiens) (UniProt P14859); assay: EMSA; settings: protein in an extract, protein details: endogenous, MonoMac6 nuclear extract, label: 32P
T1 sequence (looked up, limits assumed): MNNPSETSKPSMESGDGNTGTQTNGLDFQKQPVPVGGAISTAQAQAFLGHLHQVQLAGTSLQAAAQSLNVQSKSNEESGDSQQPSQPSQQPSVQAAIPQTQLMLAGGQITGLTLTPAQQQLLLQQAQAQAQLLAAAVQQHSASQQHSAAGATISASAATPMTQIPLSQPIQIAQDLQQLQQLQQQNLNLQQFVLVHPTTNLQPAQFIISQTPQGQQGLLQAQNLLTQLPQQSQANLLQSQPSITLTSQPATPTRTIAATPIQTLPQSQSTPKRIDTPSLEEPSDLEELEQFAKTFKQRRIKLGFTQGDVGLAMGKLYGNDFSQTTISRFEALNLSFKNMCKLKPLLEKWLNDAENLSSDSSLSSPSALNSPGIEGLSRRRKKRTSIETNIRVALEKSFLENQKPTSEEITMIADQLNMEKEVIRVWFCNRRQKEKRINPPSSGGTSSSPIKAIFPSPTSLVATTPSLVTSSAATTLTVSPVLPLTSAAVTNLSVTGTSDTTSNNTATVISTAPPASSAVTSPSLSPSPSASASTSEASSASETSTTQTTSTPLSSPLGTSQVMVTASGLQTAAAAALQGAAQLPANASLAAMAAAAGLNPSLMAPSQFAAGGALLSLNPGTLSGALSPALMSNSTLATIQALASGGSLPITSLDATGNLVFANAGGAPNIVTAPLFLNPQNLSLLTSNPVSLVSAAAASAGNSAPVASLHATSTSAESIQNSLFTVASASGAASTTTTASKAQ

[2] = molecular target: T1, OCT1 (POU2F1) (Homo sapiens); assay: competition with a labelled probe; settings: 10x excess cold duplex abolishes OCT1 complex on -879/-845 probe; protein in an extract; protein details: endogenous, MonoMac6 nuclear extract
[3] = molecular target: T2, NF-kB p50-p50 homodimer (Homo sapiens) (UniProt P19838); assay: EMSA; settings: LPS-inducible complex, protein in an extract, label: 32P
T2 sequence (looked up, limits assumed): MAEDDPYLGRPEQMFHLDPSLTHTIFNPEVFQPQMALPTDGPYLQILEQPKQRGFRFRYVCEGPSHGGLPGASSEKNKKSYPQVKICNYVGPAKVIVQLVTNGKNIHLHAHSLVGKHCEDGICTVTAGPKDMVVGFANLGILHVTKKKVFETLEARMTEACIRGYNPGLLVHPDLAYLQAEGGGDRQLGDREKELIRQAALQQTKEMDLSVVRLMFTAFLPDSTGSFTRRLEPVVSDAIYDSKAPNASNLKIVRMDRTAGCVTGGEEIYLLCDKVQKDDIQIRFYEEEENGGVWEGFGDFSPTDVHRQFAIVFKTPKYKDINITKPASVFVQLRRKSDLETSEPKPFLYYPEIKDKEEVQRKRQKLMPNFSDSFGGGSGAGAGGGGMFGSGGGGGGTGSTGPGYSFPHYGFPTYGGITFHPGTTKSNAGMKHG

[4] = tested on: NF-kB p50-p65 heterodimer (Homo sapiens); assay: EMSA; settings: LPS-inducible complex, protein in an extract, label: 32P
[5] = [none], letters built from the parent sequence and the stated change, variant of TNF -879/-845 857C

“AGCTCCCTTAACGAAGACAGGGCC (double strand) [TNF -864/-845 857C]”: no binding ([1]; lanes 9, 10, variant of TNF -879/-845 857C).

“AGCTCCCTTAATGCAAATAGG / AGCTCCTATTTGCATTAAGGG [OCT1 consensus competitor]”: binds [2].

“AGCTGAGTATGGGGACCCCCCCTTAACGAAGACAGGGCC (double strand) [TNF -879/-845 857C]”: no binding ([1]; high molecular weight complex absent); binds [3]; binds [4].

“GAGTATGGGGACCCCCCCTTAA (double strand) [TNF -879/-858 (kB1)]”: no binding ([1]; [none], only NF-kB complexes described with this probe, 10x-100x NF-kB site (kB1) competitor had no effect on OCT1 complex, letters built from the parent sequence and the stated change, variant of TNF -879/-845 857C); binds [3, 5]; binds [4, 5].
